{"source": "paper doi:10.1101/2025.05.06.651509", "about": "(bioRxiv, 2025)", "binders": {"B1": {"name": "NRBP2 (protein, UniProt Q91V36 1-499)", "chain": "MAAPEPAPRRGREREREDESEDESDILEESPCGRWQKRREQVNQGNMPGIQSTFLAMDTEEGVEVVWNELHFGDRKAFAAHEEKIQTMFEQLALVDHPNIVKLHKYWLDASEARARVIFITEYVSSGSLKQFLKKTKKNHKAMNARAWKRWCTQILSALSFLHACSPPIIHGNLTSDTIFIQHNGLIKIGSVWYRIFSNALPDDLRSPIRAEREELRNLHFFPPEYGEVNDGTAVDIFSFGMCALEMAVLEIQANGDTRVTEEAIARARHSLSDPNMREFILSCLARDPARRPSAHNLLFHRVLFEVHSLKLLAAHCFIQHQYLMPENVVEEKTKAMDLHAVLAEMPQPHGPPMQWRYSEVSFLELDKFLEDVRNGIYPLMNFAAARPLGLPRVLAPPPEEAQKAKTPTPEPFDSETRKVVQMQCNLERSEDKARWHLTLLLVLEDRLHRQLTYDLLPTDSAQDLAAELVHYGFLHEDDRTKLAAFLETTFLKYRGTQA"}, "B2": {"name": "AACS (enzyme, UniProt Q9D2R0 1-672)", "chain": "MSKLARLEREEIMECQVMWEPDSKKDTQMDRFRAAVGTACGLALGNYNDLYHWSVRSYMDFWAEFWKFSGIVYSRMYDEVVDTSKGIADVPEWFRGSRLNYAENLLRHKENDRVALYVAREGREEIVKVTFEELRQQVALFAAAMRKMGVKKGDRVVGYLPNSAHAVEAMLAAASIGAIWSSTSPDFGVNGVLDRFSQIQPKLIFSVEAVVYNGKEHGHLEKLQRVVKGLPDLQRVVLIPYVLPREKIDISKIPNSVFLDDFLASGTGAQAPQLEFEQLPFSHPLFIMFSSGTTGAPKCMVHSAGGTLIQHLKEHMLHGNMTSSDILLYYTTVGWMMWNWMVSALATGASLVLYDGSPLVPTPNVLWDLVDRIGITILGTGAKWLSVLEEKDMKPVETHNLHTLHTILSTGSPLKAQSYEYVYRCIKSSVLLGSISGGTDIISCFMGQNSSIPVYKGEIQARNLGMAVEAWDEEGKAVWGASGELVCTKPIPCQPTHFWNDENGSKYRKAYFSKFPGVWAHGDYCRINPKTGGIIMLGRSDGTLNPNGVRFGSSEIYNIVEAFDEVEDSLCVPQYNRDGEERVVLFLKMASGHTFQPDLVKRIRDAIRLGLSARHVPSLILETRGIPYTLNGKKVEVAVKQVMAGRTVEHRGAFSNPETLDLYRDIPELQDF"}}, "target": "T1, HA-tagged TSC22D4 (UniProt Q9Y3Q8)", "T1 sequence": "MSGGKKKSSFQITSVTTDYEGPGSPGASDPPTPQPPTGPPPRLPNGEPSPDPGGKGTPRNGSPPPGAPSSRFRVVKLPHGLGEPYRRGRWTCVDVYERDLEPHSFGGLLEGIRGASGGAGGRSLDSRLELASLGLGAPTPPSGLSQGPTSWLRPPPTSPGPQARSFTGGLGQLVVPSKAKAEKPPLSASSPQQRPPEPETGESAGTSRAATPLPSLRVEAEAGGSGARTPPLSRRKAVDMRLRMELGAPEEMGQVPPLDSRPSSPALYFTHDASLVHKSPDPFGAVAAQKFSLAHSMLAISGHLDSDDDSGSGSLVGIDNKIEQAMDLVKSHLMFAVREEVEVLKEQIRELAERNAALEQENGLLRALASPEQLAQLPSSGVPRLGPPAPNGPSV", "assay": "affinity purification with mass spectrometry", "note": "No constants are given. Whether binding was seen depends on the method and setting. In cells and extracts the contact can be indirect. These calls come from enrichment with a bait or labelling near it, and not all partners need be listed. Sequences can lack the tags named with a protein."}
{"binder": "B1", "values": [{"measurement": "binding", "result": "binds"}]}
{"binder": "B2", "values": [{"measurement": "binding", "result": "binds"}]}
